For one molecule, binding results are on record in PMC6994238.

Results are given in words; binding and its absence hold for the method and conditions named. Binding can be weak; no strength is given.

The assay has as its target FAP52, Chlamydomonas reinhardtii (Chlamydomonas reinhardtii). Put plainly: cryo-EM structure; taxol-stabilised, 0.6 M NaCl-washed doublet microtubules isolated from Chlamydomonas flagella; 16 nm repeat map, focused refinement of the inner junction to 3.6 Å; atomic model PDB 6VE7.

B1: FAP20, Chlamydomonas reinhardtii (protein, UniProt A8IU92 1-190)
chain: MFKNAFQSGFLSVLYSIGSKPLEIWDKQVSNGHIKRITDADIQSSVLEIMGQNVSTTYITCPADPNKTLGIKLPFLVLIIKNLNKYFSFEVQVLDDKNVRRRFRASNYQSTTRVKPFICTMPMRLDSGWNQIQFNLSDFTRRAYGTNYIETLRVQVHANCRIRRIYFSDRLYSEEELPAEFKLFLPIQKS
For the molecule B1, the binding result is “binds”.
